Reference: patent US20170260251A1
Results are given in words; binding and its absence hold for the method and conditions named. Some entries that bind do so weakly or less than the wild type.

Protein sequences, listed by entry. Tags and fused reporters are not part of them. Lines headed by an entry give the natural chain unless they say otherwise; changes in a name come on top. Residues count along the entry.
UniProt P03952, residues 20-638: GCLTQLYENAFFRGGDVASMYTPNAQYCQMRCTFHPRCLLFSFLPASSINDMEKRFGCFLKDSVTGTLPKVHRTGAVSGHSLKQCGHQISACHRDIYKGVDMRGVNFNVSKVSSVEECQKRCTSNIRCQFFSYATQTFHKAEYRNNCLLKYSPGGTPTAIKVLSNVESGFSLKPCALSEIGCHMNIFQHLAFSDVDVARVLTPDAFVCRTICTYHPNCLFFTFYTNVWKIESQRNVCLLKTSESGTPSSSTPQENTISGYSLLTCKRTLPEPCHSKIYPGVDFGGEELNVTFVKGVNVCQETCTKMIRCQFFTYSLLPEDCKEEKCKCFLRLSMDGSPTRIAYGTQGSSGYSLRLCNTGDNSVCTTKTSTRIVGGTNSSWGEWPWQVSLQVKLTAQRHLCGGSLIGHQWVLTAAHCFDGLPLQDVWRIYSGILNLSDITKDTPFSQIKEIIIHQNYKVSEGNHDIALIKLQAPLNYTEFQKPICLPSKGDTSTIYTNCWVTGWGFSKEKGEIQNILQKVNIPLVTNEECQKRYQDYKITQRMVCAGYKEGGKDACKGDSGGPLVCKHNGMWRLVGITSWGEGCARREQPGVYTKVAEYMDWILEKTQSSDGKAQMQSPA
UniProt A8A271: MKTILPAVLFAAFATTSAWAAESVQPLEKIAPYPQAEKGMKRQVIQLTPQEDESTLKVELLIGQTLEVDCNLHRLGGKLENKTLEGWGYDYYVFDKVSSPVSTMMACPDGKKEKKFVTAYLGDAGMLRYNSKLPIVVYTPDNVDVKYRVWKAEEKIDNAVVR

Tests used:
[1] = target: human kallikrein (human) (UniProt P03952); assay: sentence summing up the Ki results; species not given
[2] = target: T1, human coagulation factor XIIa (human) (UniProt P00748); assay: as above
T1 sequence (looked up): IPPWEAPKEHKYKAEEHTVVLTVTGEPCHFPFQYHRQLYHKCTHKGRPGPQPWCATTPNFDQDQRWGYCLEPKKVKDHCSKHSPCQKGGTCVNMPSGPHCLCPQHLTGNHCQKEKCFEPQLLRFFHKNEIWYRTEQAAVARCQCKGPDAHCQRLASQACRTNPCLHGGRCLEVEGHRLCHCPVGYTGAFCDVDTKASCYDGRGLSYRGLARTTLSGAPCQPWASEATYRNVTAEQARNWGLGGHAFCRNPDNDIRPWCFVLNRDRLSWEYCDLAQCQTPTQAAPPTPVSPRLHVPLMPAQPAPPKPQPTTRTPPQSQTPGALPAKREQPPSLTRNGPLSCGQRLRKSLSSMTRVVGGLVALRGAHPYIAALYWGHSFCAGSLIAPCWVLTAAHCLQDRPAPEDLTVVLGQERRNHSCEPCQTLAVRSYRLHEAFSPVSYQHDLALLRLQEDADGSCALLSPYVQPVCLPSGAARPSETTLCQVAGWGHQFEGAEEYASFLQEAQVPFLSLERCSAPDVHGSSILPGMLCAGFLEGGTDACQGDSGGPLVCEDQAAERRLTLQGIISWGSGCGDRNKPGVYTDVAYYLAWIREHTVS

binding [1]	binding [2]	Substance
binds		Ecotin variant NB142 (M84R/V81R) (from UniProt A8A271 21-162)
binds	binds	wild type Ecotin (NB101) (from UniProt A8A271 21-162)
